Reference: patent publication US20230287489
For part of these data: Negatives hold for the conditions tested. For part of these data: Protein sequences can lack the tags named with them. For part of these data: Construct, isoform or probe ends are uncertain for at least one entry.

Chains of the proteins cited; added tags and fusions are not shown. Lines headed by an entry give the natural chain unless they say otherwise; changes in a name come on top.
UniProt P06855: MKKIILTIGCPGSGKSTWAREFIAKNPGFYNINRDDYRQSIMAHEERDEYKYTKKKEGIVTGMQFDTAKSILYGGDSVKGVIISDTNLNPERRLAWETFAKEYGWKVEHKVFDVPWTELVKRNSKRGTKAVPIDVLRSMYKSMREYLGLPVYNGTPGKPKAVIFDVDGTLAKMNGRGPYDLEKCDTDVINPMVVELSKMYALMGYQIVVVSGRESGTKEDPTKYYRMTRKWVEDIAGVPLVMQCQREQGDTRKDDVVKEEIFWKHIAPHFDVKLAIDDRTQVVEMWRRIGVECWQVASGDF

Key:
Experiment in all cases: enzyme reaction in vitro
[1] = molecular target: T4 polynucleotide kinase (T4 PNK) (Enterobacteria phage T4) (UniProt P06855); conditions: 3' end 2',3'-cyclic phosphate or 3'-phosphate; cyclic phosphate/3'-phosphate ends converted to 2',3'-hydroxyl; NEBuffer 1, 37 C 30 min with hRNase 4; purified recombinant protein
[2] = molecular target: T1, Human RNase 4 (hRNase 4) (Homo sapiens) (UniProt P34096); conditions: purified recombinant protein
T1 sequence: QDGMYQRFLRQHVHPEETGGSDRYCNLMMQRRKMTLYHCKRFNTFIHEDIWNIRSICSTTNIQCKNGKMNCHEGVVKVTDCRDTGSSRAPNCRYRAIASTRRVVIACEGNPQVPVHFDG

RNase If = molecular target: T2, RNase If (UniProt P21338); conditions: variable 3'-recessed and overhang products; NEB buffer 3; purified recombinant protein; DNA:RNA hybrid
T2 sequence (looked up, limits assumed): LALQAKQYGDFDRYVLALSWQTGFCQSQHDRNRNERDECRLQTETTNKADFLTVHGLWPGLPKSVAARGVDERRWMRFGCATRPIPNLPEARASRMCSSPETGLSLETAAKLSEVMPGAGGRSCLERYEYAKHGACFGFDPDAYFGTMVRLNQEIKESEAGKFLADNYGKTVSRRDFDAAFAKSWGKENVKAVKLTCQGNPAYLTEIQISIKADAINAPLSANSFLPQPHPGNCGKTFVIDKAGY

[3] = molecular target: T3, RNase MC1 (Momordica charantia) (UniProt P23540); conditions: hybrid protected; 3' overhang products; NEB r1.1 with T4 PNK; purified recombinant protein; DNA:RNA hybrid
T3 sequence (looked up, limits assumed): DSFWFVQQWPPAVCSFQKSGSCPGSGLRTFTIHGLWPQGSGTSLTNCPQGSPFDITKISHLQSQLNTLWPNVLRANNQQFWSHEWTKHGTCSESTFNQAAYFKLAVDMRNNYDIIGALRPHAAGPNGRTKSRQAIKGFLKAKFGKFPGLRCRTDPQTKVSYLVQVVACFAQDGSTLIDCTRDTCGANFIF

[4] = molecular target: T4, RNase T1 (Aspergillus oryzae) (UniProt P00651); conditions: purified recombinant protein
T4 sequence (looked up, limits assumed): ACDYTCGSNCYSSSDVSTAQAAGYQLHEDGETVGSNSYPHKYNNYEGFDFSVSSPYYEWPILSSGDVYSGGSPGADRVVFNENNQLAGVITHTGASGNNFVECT

RNase A = molecular target: T5, RNase A (UniProt P61823); conditions: variable 3'-recessed and overhang products; 300 mM NaCl; purified native protein; DNA:RNA hybrid
T5 sequence (looked up, limits assumed): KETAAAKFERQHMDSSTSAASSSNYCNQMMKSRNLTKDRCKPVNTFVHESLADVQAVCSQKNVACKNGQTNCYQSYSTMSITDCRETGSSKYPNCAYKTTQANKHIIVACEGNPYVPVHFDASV

Sequence: AAAAAAAAAAAAAU [5' cleavage product of SEQ 5]
- activity on this sequence [1]: active

Sequence: AAAAAAAAAAAAAUAAAAAAAAAAA [UA oligo]
- activity on this sequence ([2]; cleaved, NEBuffer 1 (10 mM MgCl2), 37 C 1 h, pooled oligos, LC-MS/MS): active

Sequence: AAAAAAAAAAAAAUGAAAAAAAAAA [UG oligo]
- activity on this sequence ([2]; cleaved between U and G, NEBuffer 1, 37 C): active

Sequence: AAAAAAAAAAAAAUUAAAAAAAAAA [UU/UA oligo]
- activity on this sequence ([2]; cleaved, UU not conclusive because UA also present): active

Sequence: AAAAAAAAAAACCAAAAAAAAA [CC oligo]
- activity on this sequence ([2]; not cleaved): not active

Sequence: AAAAAAAAAAAGUAAAAAAAAA [GU/UA oligo]
- activity on this sequence ([2]; cleaved at UA): active

Sequence: AAAAAAAACAAAAAA [AC/CA oligo]
- activity on this sequence ([2]; not cleaved): not active

Sequence: AAAAAAAAGCAAAAA [GC/CA oligo]
- activity on this sequence ([2]; CA-containing, not cleaved): not active

Sequence: AAAAAAAAUCAAAAA [UC oligo]
- activity on this sequence ([2]; not cleaved at any tested concentration): not active

Sequence: AAAAAACGAAAA [CG oligo]
- activity on this sequence ([2]; not cleaved): not active

Sequence: AAAAAACUAAAA [CU/UA oligo]
- activity on this sequence ([2]; cleaved, CU not conclusive because UA also present): active

Sequence: AAGAGAGAUAGAGAA [single-site 15mer]
- activity on this sequence ([2]; robust cleavage, inhibited by human placental RNase inhibitor): active

Sequence: AGGGCTTGCTTGTTCTTTTTGCAGAAGCTCAGAAT / GAGCTTCTGCAAAAAGAACAAGCAAGCCCT [EPO mRNA 5' end with 30mer DNA probe]
- activity on this sequence ([2]; 5' m7GpppAm cap, 35mer isolated, cleavage prevented within the hybrid, cuts at first UR site after it, 1 M urea, label: 5' biotin on probe, DNA:RNA hybrid): active

Sequence: GGGACTCTAACTATGTCAATCGCCGTGATGTAATTATCGC / ATTGACATAGTTAGAGTCCC [40mer RNA with 20mer DNA probe]
- activity on this sequence (RNase If): active
- activity on this sequence [3]: active
- activity on this sequence ([2]; hybrid protected, cleavage at first site after the duplex, NEB r1.1 with T4 PNK, DNA:RNA hybrid): active
- activity on this sequence ([4]; hybrid protected, 3' overhang products, NEB r1.1 with T4 PNK, DNA:RNA hybrid): active
- activity on this sequence (RNase A): active

Sequence: GGGGCUUGCUUGUUCUUUUUGCAGAAGCUCAGAAUAAACGCUCAACUUUGGCACCAUGGGAGUGCACGAGUGUCCCGCGUGGUUGUGGUUGCUGCUGUCGCUCUUGAGCCUCCCACUGGGACUGCCUGUGCUGGGGGCACCACCCAGAUUGAUCUGCGACUCACGGGUACUUGAGAGGUACCUUCUUGAAGCCAAAGAAGCCGAAAACAUCACAACCGGAUGCGCCGAGCACUGCUCCCUCAAUGAGAACAUUACUGUACCGGAUACAAAGGUCAAUUUCUAUGCAUGGAAGAGAAUGGAAGUAGGACAGCAGGCCGUCGAAGUGUGGCAGGGGCUCGCGCUUUUGUCGGAGGCGGUGUUGCGGGGUCAGGCCCUCCUCGUCAACUCAUCACAGCCGUGGGAGCCCCUCCAACUUCAUGUCGAUAAAGCGGUGUCGGGGCUCCGCAGCUUGACGACGUUGCUUCGGGCUCUGGGCGCACAAAAGGAGGCUAUUUCGCCGCCUGACGCGGCCUCCGCGGCACCCCUCCGAACGAUCACCGCGGACACGUUUAGGAAGCUUUUUAGAGUGUACAGCAAUUUCCUCCGCGGAAAGCUGAAAUUGUAUACUGGUGAAGCGUGUAGGACAGGGGAUCGCUAGGACUGACUAGGAUCUGGUUACCACUAAACCAGCCUCAAGAACACCCGAAUGGAGUCUCUAAGCUACAUAAUACCAACUUACACUUUACAAAAUGUUGUCCCCCAAAAUGUAGCCAUUCGUAUCUGCUCCUAAUAAAAAGAAAGUUUCUUCACAUUCUAGCUAGC [Epo mRNA (U)]
- activity on this sequence ([2]; 73-87% coverage across Epo mRNAs): active
- activity on this sequence ([4]; 50-61% coverage across Epo mRNAs): active

Sequence: GGGGCUUGCUUGUUCUUUUUGCAGAAGCUCAGAAUAAACGCUCAACUUUGGCACCAUGGGAGUGCACGAGUGUCCCGCGUGGUUGUGGUUGCUGCUGUCGCUCUUGAGCCUCCCACUGGGACUGCCUGUGCUGGGGGCACCACCCAGAUUGAUCUGCGACUCACGGGUACUUGAGAGGUACCUUCUUGAAGCCAAAGAAGCCGAAAACAUCACAACCGGAUGCGCCGAGCACUGCUCCCUCAAUGAGAACAUUACUGUACCGGAUACAAAGGUCAAUUUCUAUGCAUGGAAGAGAAUGGAAGUAGGACAGCAGGCCGUCGAAGUGUGGCAGGGGCUCGCGCUUUUGUCGGAGGCGGUGUUGCGGGGUCAGGCCCUCCUCGUCAACUCAUCACAGCCGUGGGAGCCCCUCCAACUUCAUGUCGAUAAAGCGGUGUCGGGGCUCCGCAGCUUGACGACGUUGCUUCGGGCUCUGGGCGCACAAAAGGAGGCUAUUUCGCCGCCUGACGCGGCCUCCGCGGCACCCCUCCGAACGAUCACCGCGGACACGUUUAGGAAGCUUUUUAGAGUGUACAGCAAUUUCCUCCGCGGAAAGCUGAAAUUGUAUACUGGUGAAGCGUGUAGGACAGGGGAUCGCUAGGACUGACUAGGAUCUGGUUACCACUAAACCAGCCUCAAGAACACCCGAAUGGAGUCUCUAAGCUACAUAAUACCAACUUACACUUUACAAAAUGUUGUCCCCCAAAAUGUAGCCAUUCGUAUCUGCUCCUAAUAAAAAGAAAGUUUCUUCACAUUCUAGCUAGC [Epo mRNA (m1Y)]
- activity on this sequence ([2]; all U replaced by 1-methylpseudouridine, 73-87% coverage across Epo mRNAs): active
- activity on this sequence ([4]; all U replaced by 1-methylpseudouridine, 50-61% coverage across Epo mRNAs): active

Sequence: GGGGCUUGCUUGUUCUUUUUGCAGAAGCUCAGAAUAAACGCUCAACUUUGGCACCAUGGGAGUGCACGAGUGUCCCGCGUGGUUGUGGUUGCUGCUGUCGCUCUUGAGCCUCCCACUGGGACUGCCUGUGCUGGGGGCACCACCCAGAUUGAUCUGCGACUCACGGGUACUUGAGAGGUACCUUCUUGAAGCCAAAGAAGCCGAAAACAUCACAACCGGAUGCGCCGAGCACUGCUCCCUCAAUGAGAACAUUACUGUACCGGAUACAAAGGUCAAUUUCUAUGCAUGGAAGAGAAUGGAAGUAGGACAGCAGGCCGUCGAAGUGUGGCAGGGGCUCGCGCUUUUGUCGGAGGCGGUGUUGCGGGGUCAGGCCCUCCUCGUCAACUCAUCACAGCCGUGGGAGCCCCUCCAACUUCAUGUCGAUAAAGCGGUGUCGGGGCUCCGCAGCUUGACGACGUUGCUUCGGGCUCUGGGCGCACAAAAGGAGGCUAUUUCGCCGCCUGACGCGGCCUCCGCGGCACCCCUCCGAACGAUCACCGCGGACACGUUUAGGAAGCUUUUUAGAGUGUACAGCAAUUUCCUCCGCGGAAAGCUGAAAUUGUAUACUGGUGAAGCGUGUAGGACAGGGGAUCGCUAGGACUGACUAGGAUCUGGUUACCACUAAACCAGCCUCAAGAACACCCGAAUGGAGUCUCUAAGCUACAUAAUACCAACUUACACUUUACAAAAUGUUGUCCCCCAAAAUGUAGCCAUUCGUAUCUGCUCCUAAUAAAAAGAAAGUUUCUUCACAUUCUAGCUAGC [Epo mRNA (mo5U)]
- activity on this sequence ([2]; all U replaced by 5-methoxyuridine, 73-87% coverage across Epo mRNAs): active
- activity on this sequence ([4]; all U replaced by 5-methoxyuridine, 50-61% coverage across Epo mRNAs): active
